Measurements taken from paper PMC12075709.
These are yes or no findings as the source states them, for the method shown.

The chains behind the UniProt entries cited, without tags or fusion partners. Where a name states a change or a piece, a line headed by the entry shows the natural chain unless it says otherwise. Residues count along the entry.
UniProt P37173, residues 23-166: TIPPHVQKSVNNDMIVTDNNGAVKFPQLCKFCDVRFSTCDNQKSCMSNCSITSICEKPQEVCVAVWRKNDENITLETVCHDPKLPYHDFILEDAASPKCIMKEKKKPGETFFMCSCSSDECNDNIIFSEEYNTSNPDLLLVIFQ

Molecular target: chimeric recombinant human TGFBR2-Fc (human) (UniProt P37173)
Assay: SPR; Biacore T200; receptor-Fc captured on a Protein A sensor chip (~70 RU); rhGDF3 flowed over, two-fold dilutions 12.5 nM-0.391 nM; 20 mM HEPES pH 7.4, 350 mM NaCl, 3.4 mM EDTA, 0.05% P-20, 0.5 mg/ml BSA, 25 °C; 1:1 fit model with mass transport limitations; both purified

binding: no binding (tested: 12.5 nM)
B1: recombinant human GDF3 (Growth Differentiation Factor 3) (ligand, UniProt Q9NR23 251-364)
chain: AAIPVPKLSCKNLCHRHQLFINFRDLGWHKWIIAPKGFMANYCHGECPFSLTISLNSSNYAFMQALMHAVDPEIPQAVCIPTKLSPISMLYQDNNDNVILRHYEDMVVDECGCG
